The labels stand for the following.
B1: MED26 (protein, UniProt Q7TN02 1-588)
chain: MTAAPASPQQMRDRLLQAIDSQSNIRNMVAVLEVISSLERYPITKEALEETRLGKLINDVRKKTKNEELAKRAKRLLRSWQKLIEPVHQNEVALRALAGAAGSANGGAHNCRPEMGVAGAPKSIHDLKNRNDIQRLPGQRLDRLGSRKRRGDQRDLGHPGPPHKVSKGSPDPLVPNASPLPTNGISGSPESLPSPLDGSGHLGPDGSRLEPSDNEKHSTKIPVNAVRPRPSSPGLGKPPVPCLQTKAAQLQQLDRADESPGPPYPRGSSRCSFSPRNSRHEGSFSRHRSSYIPKGQVSSPSPWPQPPDNTQVPSPLPLAQPPTPPVRRQELLPNAESPVHWPEQSEGHPRLTGPACRAGFSPDSSKADSDATSSGGSDSKKKKRYRPRDYTVNLDGQVAEAGVKPVRLKERKLTFDPMTRQIRPLTQKEPVRADSPVPTEQLPRTELEQQEVKASLQSPFEQTNWKELSRNEIIQSYLSRQSSLLSSSGAQTPGAHHFMAEYLKQEESSRQGARQPHVLLPLPTPTDLPGLTREVTQDDLDRIQAQQWPGVNGCEDTQGNWYDWTQCISLDPHGDDGRLNILPYVCLD

Sequences of proteins named here, by UniProt entry; tags and fusion partners are left off.
UniProt Q9WTX6: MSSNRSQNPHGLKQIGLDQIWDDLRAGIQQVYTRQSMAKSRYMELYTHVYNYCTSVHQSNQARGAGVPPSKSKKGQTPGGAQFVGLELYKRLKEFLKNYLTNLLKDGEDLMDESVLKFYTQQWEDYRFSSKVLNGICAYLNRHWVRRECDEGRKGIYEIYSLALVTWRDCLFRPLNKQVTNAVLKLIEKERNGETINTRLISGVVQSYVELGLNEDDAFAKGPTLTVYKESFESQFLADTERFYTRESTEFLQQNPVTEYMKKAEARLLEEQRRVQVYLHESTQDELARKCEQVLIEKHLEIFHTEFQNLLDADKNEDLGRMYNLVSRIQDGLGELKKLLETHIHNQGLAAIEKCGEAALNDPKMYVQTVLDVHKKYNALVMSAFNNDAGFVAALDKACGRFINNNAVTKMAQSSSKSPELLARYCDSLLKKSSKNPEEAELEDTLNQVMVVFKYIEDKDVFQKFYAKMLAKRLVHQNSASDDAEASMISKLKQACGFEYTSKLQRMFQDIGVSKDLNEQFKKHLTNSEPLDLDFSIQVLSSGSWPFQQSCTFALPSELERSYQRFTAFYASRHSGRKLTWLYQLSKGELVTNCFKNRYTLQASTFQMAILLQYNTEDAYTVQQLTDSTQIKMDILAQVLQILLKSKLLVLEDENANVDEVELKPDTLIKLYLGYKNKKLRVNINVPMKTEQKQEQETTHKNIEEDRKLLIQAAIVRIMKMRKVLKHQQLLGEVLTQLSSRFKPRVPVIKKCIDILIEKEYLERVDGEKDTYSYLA
UniProt P61290: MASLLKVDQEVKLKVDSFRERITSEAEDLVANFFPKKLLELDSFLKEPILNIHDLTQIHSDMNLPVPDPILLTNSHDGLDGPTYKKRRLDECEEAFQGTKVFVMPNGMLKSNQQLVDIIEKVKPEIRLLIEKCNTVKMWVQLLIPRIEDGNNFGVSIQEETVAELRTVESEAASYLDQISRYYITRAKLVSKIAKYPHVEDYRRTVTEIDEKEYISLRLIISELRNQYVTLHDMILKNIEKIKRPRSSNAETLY

No constants are given. Whether binding was seen depends on the method and setting. In cells and extracts the contact can be indirect. A yes stands for co-enrichment or nearness to the bait. Other partners may have been found. A no says only that the protein was not detected with the bait. Tags and fused reporters may be left off the sequences shown.

The target of the experiment is T1, FS2-FBXL19 (epitope-tagged wild-type FBXL19, stable mouse ES cell line) (mouse) (UniProt Q6PB97).
T1 sequence: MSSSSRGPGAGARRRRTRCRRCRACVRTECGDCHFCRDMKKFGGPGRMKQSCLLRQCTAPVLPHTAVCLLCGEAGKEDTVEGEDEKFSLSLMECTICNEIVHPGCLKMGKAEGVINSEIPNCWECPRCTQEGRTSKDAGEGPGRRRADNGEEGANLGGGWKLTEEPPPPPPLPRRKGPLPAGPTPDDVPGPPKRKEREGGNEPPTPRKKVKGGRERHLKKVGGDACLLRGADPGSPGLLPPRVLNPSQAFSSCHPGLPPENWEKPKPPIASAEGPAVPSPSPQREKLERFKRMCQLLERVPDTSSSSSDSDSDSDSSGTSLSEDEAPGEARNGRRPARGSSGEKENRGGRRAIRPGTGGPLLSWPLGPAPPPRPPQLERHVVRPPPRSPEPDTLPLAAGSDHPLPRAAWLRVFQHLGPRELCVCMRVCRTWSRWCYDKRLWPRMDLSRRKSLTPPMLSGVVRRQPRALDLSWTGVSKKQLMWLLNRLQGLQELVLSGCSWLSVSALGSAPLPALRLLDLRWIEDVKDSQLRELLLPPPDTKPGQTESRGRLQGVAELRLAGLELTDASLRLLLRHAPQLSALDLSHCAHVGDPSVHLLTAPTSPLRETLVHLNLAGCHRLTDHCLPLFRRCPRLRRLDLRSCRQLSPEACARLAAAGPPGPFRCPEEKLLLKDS
As to the kind of experiment: affinity purification with mass spectrometry; FS2-FBXL19 purified on StrepTactin resin from 10-15 mg ES cell nuclear extract; 75 U/mL benzonase; wash 20 mM Tris pH 8.0, 150 mM NaCl, 0.2% NP-40; empty vector control purification; two biological replicates.
Turning to CUL1 (from UniProt Q9WTX6 1-776), the binding entry is listed as “no binding”.

Consider “nuclear proteasome activator PSME3 (from UniProt P61290 1-254)”, for which the binding result was “binds”.

B1: the binding entry was “no binding”.

These data come from paper PMC5997449.
